| logP | SMILES |
| --- | --- |
| 2.62 | O=C(Nc1ccccc1)c1ccccc1 |
| 0.27 | CCn1cc(C(=O)O)c(=O)c2cc(F)c(N3CCN(C)CC3)cc21 |
| 1.94 | C[C@@H]1C[C@H]2[C@@H]3C[C@H](F)C4=CC(=O)C=C[C@]4(C)[C@@]3(F)[C@@H](O)C[C@]2(C)[C@@]1(O)C(=O)CO |
| 0.13 | NC(=O)NNc1ccccc1 |
